Results: article PMC9178026
Results are given in words; binding and its absence hold for the method and conditions named. Binding seen in cells or lysates may run through a third protein. Some entries that bind do so weakly or less than the wild type. One block for each molecule: values may come before it.

Chains of the proteins cited; added tags and fusions are not shown. Lines headed by an entry give the natural chain unless they say otherwise; changes in a name come on top.
UniProt Q64010: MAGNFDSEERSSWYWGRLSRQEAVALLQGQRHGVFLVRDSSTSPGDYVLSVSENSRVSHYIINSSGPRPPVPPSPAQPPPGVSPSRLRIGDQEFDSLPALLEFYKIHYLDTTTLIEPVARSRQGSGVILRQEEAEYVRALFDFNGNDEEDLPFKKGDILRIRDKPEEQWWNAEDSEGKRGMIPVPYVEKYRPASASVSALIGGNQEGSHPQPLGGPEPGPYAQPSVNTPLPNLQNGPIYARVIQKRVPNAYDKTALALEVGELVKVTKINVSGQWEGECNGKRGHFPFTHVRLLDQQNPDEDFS

Legend:
[1] = molecular target: T1, RAC1-GEF FARP1 (mouse (endogenous in E18.5 limb muscle and primary MuSC-derived myotubes)) (UniProt F8VPU2); assay: co-IP; immunoprecipitation with a FARP1 antibody from E18.5 limb muscle protein extract; co-precipitated proteins identified by western blot
T1 sequence: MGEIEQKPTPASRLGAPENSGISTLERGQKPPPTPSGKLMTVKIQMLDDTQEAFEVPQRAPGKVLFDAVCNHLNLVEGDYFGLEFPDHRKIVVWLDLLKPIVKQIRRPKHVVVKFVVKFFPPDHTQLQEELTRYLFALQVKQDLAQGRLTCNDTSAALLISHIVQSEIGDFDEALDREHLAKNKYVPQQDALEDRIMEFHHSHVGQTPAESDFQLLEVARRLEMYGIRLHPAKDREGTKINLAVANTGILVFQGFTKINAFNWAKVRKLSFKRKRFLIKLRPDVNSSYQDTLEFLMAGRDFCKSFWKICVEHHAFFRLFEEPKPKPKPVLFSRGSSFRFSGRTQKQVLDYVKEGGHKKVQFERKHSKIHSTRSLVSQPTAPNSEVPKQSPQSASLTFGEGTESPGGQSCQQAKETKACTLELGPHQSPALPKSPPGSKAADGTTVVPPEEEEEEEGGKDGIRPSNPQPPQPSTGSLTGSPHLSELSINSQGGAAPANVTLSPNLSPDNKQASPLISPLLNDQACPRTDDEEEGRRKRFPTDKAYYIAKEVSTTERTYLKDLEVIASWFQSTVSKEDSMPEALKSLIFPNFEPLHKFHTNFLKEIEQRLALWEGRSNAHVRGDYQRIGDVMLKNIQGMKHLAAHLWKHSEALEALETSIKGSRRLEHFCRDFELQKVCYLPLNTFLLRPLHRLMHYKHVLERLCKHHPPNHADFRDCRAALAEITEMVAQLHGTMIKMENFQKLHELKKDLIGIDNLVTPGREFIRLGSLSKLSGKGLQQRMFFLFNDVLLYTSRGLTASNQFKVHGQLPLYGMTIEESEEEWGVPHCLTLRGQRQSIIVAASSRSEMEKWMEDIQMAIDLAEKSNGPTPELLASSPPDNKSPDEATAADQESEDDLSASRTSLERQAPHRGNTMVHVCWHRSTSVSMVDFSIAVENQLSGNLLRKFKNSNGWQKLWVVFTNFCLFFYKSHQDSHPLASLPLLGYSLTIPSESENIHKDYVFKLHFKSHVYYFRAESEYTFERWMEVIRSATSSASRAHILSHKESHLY

[2] = molecular target: Adapter protein CRK (mouse (endogenous in E18.5 limb muscle and primary MuSC-derived myotubes)) (UniProt Q64010); assay: proximity ligation; DuoLink in situ PLA with anti-CRK and anti-FARP1 antibodies in fixed myotubes differentiated from control and miR-1/206/133 tKO primary MuSCs

- binding [1]: binds
Molecule: Adapter protein CRK (from UniProt Q64010-1 1-304)

- binding [2]: binds
B1: RAC1-GEF FARP1 (protein, UniProt F8VPU2 1-1048)
chain: T1 sequence
